Where a name gives a salt, the structure may show the parent alone. At least one structure is not confirmed: it was looked up by name or label, or the drawing left a doubt. Some of these results come from one statement about several compounds together.
Legend:
[1] = drug-loaded coating; cited from earlier work
[2] = Release of fluorescein sodium salt from the device in a simulated lacrimal fluid flow set up; assay type: physicochemical; details: coil with pHEMA microspheres in lumen; SLF flow 0.1 mL/min

| Structure (SMILES) | Duration of in vitro release from the OphthaCoil [1] | Duration of release of the dye from the device [2] |
| --- | --- | --- |
| N#Cc1c(N2C[C@@H]3CCCN[C@@H]3C2)c(F)cc2c(=O)c(C(=O)O)cn(C3CC3)c12 [pradofloxacin] | over 48 hours | – |
| O=C1OC2(c3ccc(O)cc3Oc3cc(O)ccc32)c2ccccc21 [fluorescein sodium salt] | over 48 hours | over 5 hours |
